No constants are given. Whether binding was seen depends on the method and setting. In cells and extracts the contact can be indirect. Some entries that bind do so weakly or less than the wild type. Where a sequence is shown, tags or fusion partners need not be part of it.
T1: Strep-FLAG-tagged full-length IFT74 (human) (UniProt Q96LB3)
T1 sequence: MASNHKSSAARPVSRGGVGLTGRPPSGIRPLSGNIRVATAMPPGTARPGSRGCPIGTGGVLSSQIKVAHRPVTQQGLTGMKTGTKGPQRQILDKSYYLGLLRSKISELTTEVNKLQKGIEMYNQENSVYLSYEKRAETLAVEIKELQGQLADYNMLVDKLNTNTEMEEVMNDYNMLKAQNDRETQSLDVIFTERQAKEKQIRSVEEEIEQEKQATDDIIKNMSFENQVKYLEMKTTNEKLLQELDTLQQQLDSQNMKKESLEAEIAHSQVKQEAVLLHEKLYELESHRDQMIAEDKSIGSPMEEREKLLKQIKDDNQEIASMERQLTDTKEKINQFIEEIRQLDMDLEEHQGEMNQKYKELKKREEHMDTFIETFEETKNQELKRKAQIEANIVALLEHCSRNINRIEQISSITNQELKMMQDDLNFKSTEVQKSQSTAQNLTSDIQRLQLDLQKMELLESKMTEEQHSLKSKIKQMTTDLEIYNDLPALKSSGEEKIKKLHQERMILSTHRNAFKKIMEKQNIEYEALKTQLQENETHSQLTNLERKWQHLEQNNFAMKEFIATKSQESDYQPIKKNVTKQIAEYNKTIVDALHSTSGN


Biological target: T1, Strep-FLAG-tagged full-length IFT74 (human)
Test: co-IP; anti-FLAG affinity purification of Strep-FLAG-tagged IFT74 constructs from transfected HEK293 cells, western blotting for IFT81, IFT88 and IFT46; done six times

Row | binding | Binder
1 | binds | IFT81 (protein, UniProt Q8WYA0 1-676) MSDQIKFIMDSLNKEPFRKNYNLITFDSLEPMQLLQVLSDVLAEIDPKQLVDIREEMPEQTAKRMLSLLGILKYKPSGNATDMSTFRQGLVIGSKPVIYPVLHWLLQRTNELKKRAYLARFLIKLEVPSEFLQDETVADTNKQYEELMEAFKTLHKEYEQLKISGFSTAEIRKDISAMEEEKDQLIKRVEHLKKRVETAQNHQWMLKIARQLRVEKEREEYLAQQKQEQKNQLFHAVQRLQRVQNQLKSMRQAAADAKPESLMKRLEEEIKFNLYMVTEKFPKELENKKKELHFLQKVVSEPAMGHSDLLELESKINEINTEINQLIEKKMMRNEPIEGKLSLYRQQASIISRKKEAKAEELQEAKEKLASLEREASVKRNQTREFDGTEVLKGDEFKRYVNKLRSKSTVFKKKHQIIAELKAEFGLLQRTEELLKQRHENIQQQLQTMEEKKGISGYSYTQEELERVSALKSEVDEMKGRTLDDMSEMVKKLYSLVSEKKSALASVIKELRQLRQKYQELTQECDEKKSQYDSCAAGLESNRSKLEQEVRRLREECLQEESRYHYTNCMIKNLEVQLRRATDEMKAYISSDQQEKRKAIREQYTKNTAEQENLGKKLREKQKVIRESHGPNMKQAKMWRDLEQLMECKKQCFLKQQSQTSIGQVIQEGGEDRLIL
2 | binds | IFT88 (protein, UniProt Q13099 1-824) MMQNVHLAPETDEDDLYSGYNDYNPIYDIEELENDAAFQQAVRTSHGRRPPITAKISSTAVTRPIATGYGSKTSLASSIGRPMTGAIQDGVTRPMTAVRAAGFTKAALRGSAFDPLSQSRGPASPLEAKKKDSPEEKIKQLEKEVNELVEESCIANSCGDLKLALEKAKDAGRKERVLVRQREQVTTPENINLDLTYSVLFNLASQYSVNEMYAEALNTYQVIVKNKMFSNAGILKMNMGNIYLKQRNYSKAIKFYRMALDQVPSVNKQMRIKIMQNIGVTFIQAGQYSDAINSYEHIMSMAPNLKAGYNLTICYFAIGDREKMKKAFQKLITVPLEIDEDKYISPSDDPHTNLVTEAIKNDHLRQMERERKAMAEKYIMTSAKLIAPVIETSFAAGYDWCVEVVKASQYVELANDLEINKAVTYLRQKDYNQAVEILKVLEKKDSRVKSAAATNLSALYYMGKDFAQASSYADIAVNSDRYNPAALTNKGNTVFANGDYEKAAEFYKEALRNDSSCTEALYNIGLTYEKLNRLDEALDCFLKLHAILRNSAEVLYQIANIYELMENPSQAIEWLMQVVSVIPTDPQVLSKLGELYDREGDKSQAFQYYYESYRYFPCNIEVIEWLGAYYIDTQFWEKAIQYFERASLIQPTQVKWQLMVASCFRRSGNYQKALDTYKDTHRKFPENVECLRFLVRLCTDLGLKDAQEYARKLKRLEKMKEIREQRIKSGRDGSGGSRGKREGSASGDSGQNYSASSKGERLSARLRALPGTNEPYESSSNKEIDASYVDPLGPQIERPKTAAKKRIDEDDFADEELGDDLLPE
3 | binds | IFT46 (protein, UniProt Q9NQC8 1-304) MADNSSDECEEENNKEKKKTSQLTPQRGFSENEDDDDDDDDSSETDSDSDDDDEEHGAPLEGAYDPADYEHLPVSAEIKELFQYISRYTPQLIDLDHKLKPFIPDFIPAVGDIDAFLKVPRPDGKPDNLGLLVLDEPSTKQSDPTVLSLWLTENSKQHNITQHMKVKSLEDAEKNPKAIDTWIESISELHRSKPPATVHYTRPMPDIDTLMQEWSPEFEELLGKVSLPTAEIDCSLAEYIDMICAILDIPVYKSRIQSLHLLFSLYSEFKNSQHFKALAEGKKAFTPSSNSTSQAGDMETLTFS
